# Data from the supplement of paper PMC8551327.
# The other results are listed elsewhere or left out. Cut-off read from the data, not from the text of the source: active = 1.25 or more and inactive = the rest. Many values rest on one well or one pass, so single values are uncertain.
# Test system: Kcc2-LUC knock-in mouse primary cortical neurons (Kcc2 promoter reporter)
# Experiment: Kcc2 promoter-driven luciferase activity relative to vehicle control (fold of vehicle (ratio)); higher = stronger Kcc2 promoter activation (Kcc2 expression enhancer)
# Conditions: 100 nM; 48 h
row,SMILES,Kcc2 promoter-driven luciferase activity
1,"CN=c1sc2c(n1C)C(=O)c1ccccc1C2=O [3-methyl-2-methyliminobenzo[f][1,3]benzothiazole-4,9-dione]",inactive: 0.38
2,CC1C(=O)CC2C(C)(C)CCCC2(C)C1(O)CCc1ccoc1 (centres undefined) [Hispanolone],inactive: 0.92
3,Cc1nc(-c2cccnc2)sc1C(=O)/C=C/c1ccc(Cl)cc1Cl,inactive: 1.17
4,CC[C@H](CO)Nc1nc(NCc2ccccc2)c2ncn(C(C)C)c2n1 [Seliciclib],inactive: 0.821
5,Cn1c(=O)c2nc3sc4c(n3c2n(C)c1=O)C(=O)c1ccccc1C4=O,inactive: 0.54
6,NC(=Nc1nc(-c2ccccn2)cc2ccccc12)c1ccccn1,active: 1.43
7,"O=C(Nc1ccc2c(c1)oc(=O)c1ccccc12)C(Cl)Cl [2,2-Dichloro-N-(6-oxobenzo[c]chromen-3-yl)acetamide]",inactive: 0.77
8,CC(=O)c1ccc(Oc2ccc(/C(C)=N/N=C(N)N)cc2)cc1,active: 1.32
9,CCN(CC)C(=S)S [Dithiocarb],inactive: 0.84
10,CCCCCCCCCCCCCCCCCCOP(=O)([O-])OCC[N+](C)(C)C [Octadecylphosphocholine],inactive: 0.79
11,CCOC(=O)Nc1cc2c(c(N)n1)N=C(c1ccccc1)CN2,active: 1.72
12,CS(=O)(=O)OCCCCOS(C)(=O)=O [Busulfan],inactive: 1.06
13,"O=C1c2ccccc2C(=O)c2nc(-c3ccccc3)c(-c3ccccc3)nc21 [2,3-Diphenylbenzo[g]quinoxaline-5,10-dione]",inactive: 0.95
14,"Nc1nc2c(ncn2[C@@H]2O[C@H](CO)[C@@H](O)[C@H]2O)c(=O)[nH]1 [guanosine, dihydrate]",active: 1.39
15,CO[C@@H]1[C@@H](O[C@@H]2O[C@H](C)[C@@H](O[C@H]3C[C@@](C)(O)[C@@H](OC(=O)CC(C)C)[C@H](C)O3)[C@H](N(C)C)[C@H]2O)[C@@H](CC=O)C[C@@H](C)C(=O)/C=C/[C@@H]2O[C@@H]2C[C@@H](C)OC(=O)C[C@H]1OC(C)=O [Carbomycin],inactive: 0.83
16,O=C1C(=Cc2ccccc2)CN(C(=O)/C=C/c2ccccc2)C/C1=C\c1ccccc1 (stereo in doubt),inactive: 1.06
17,CC1=NN(C(=O)c2ccncc2)C(=O)C1N=Nc1ccc(F)cc1 (centres undefined),active: 1.33
18,COC(=O)[C@]1(C)CCC[C@]2(C)C3=CC(=O)[C@@]4(C(C)C)O[C@H]4[C@]3(O)CC[C@@H]12 [Triptolide Analog],inactive: 0.983
19,OCc1ccc(-c2ccc(-c3ccc(CO)s3)o2)s1 [Sos Bismethanol],inactive: 0.95
20,COc1cc(C)c2c(c1C=O)Oc1c(c(C)c(O)c3c1C(O)OC3=O)OC2=O (centres undefined) [Stictic Acid],inactive: 0.56

row,SMILES,Kcc2 promoter-driven luciferase activity
1,N#CC(=C1C=CC(=NO)C=C1)c1ccc(Cl)cc1,inactive: 0.91
2,COc1cc(C[C@H]2c3cc(OC)c(OC)cc3CCN2C)c(Oc2cc3c(cc2OC)-c2c(OC)c(OC)cc4c2[C@H](C3)N(C)CC4)cc1OC,inactive: 1.19
3,COc1c2occc2cc2ccc(=O)oc12 [Methoxsalen],inactive: 0.871
4,O=C1C=C(Nc2ccccc2C(=O)CC(=O)C(=O)Nc2ccc(Cl)c(Cl)c2)c2ccccc2C1=O,inactive: 1.11
5,C=C1C(=O)O[C@@H]2C[C@@]3(C)CCC[C@H](C)C3=C[C@H]12 [Alantolactone],inactive: 0.996
6,COc1ccccc1[S+]([O-])Nc1ccccc1 (centres undefined) [2-methoxy-N-phenylbenzenesulfinamide],active: 1.49
7,Nc1nc(SCCc2ccccc2)c2[nH]cnc2n1 [6-phenethylsulfanyl-7H-purin-2-amine],active: 1.27
8,COc1cc2c3cc1Oc1c(OC)c(OC)cc4c1C(Cc1ccc(O)c(c1)Oc1ccc(cc1)CC3N(C)CC2)CN(C)C4 (centres undefined),inactive: 0.79
9,O=C1c2cccc(O)c2C(=O)c2c(O)cccc21 [Danthron],inactive: 0.93
10,"c1ccc2c(c1)nnn1c3cnccc3nc21 [Pyrido(4',3':4,5)imidazo(1,2-c)(1,2,3)benzotriazine]",inactive: 1.01
11,CC(C)CCCCCCCCCCCCC(=O)NCC(=O)NC1C(C)OC(Nc2ncnc3nc[nH]c23)C(O)C1O (centres undefined),inactive: 0.84
12,C/C(=N\NC(=S)N1CCN(C2CCCCCC2)CC1)c1ccccn1,inactive: 1.03
13,NC(N)=N/N=C(\c1ccc(Cl)cc1)C1CC1,inactive: 0.39
14,COc1ccc2c(c1)-c1nn(CCCN(C)C)c3ccc([N+](=O)[O-])c(c13)N2 [Pyrazoloacridine],inactive: 0.42
15,C=C(C)C1CCC2(C(=O)O)CCC3(C)C(CCC4C5(C)CCC(O)C(C)(C)C5CCC43C)C12 (centres undefined),inactive: 0.997
16,COC1C(O)=C2C(=O)OC(C)(O)/C=C/C=C\C=C/C=C/C(c3ccccc3)NC(=O)/C=C/C=C/C=C/C=C/C2(C)C1O (centres undefined),inactive: 0.84
17,NC(=O)C#CC(N)=O [Cellocidin],inactive: 1.2
18,CCOC(=O)Cc1cc(=O)oc2cc(O)ccc12 [ethyl 2-(7-hydroxy-2-oxochromen-4-yl)acetate],inactive: 0.56
19,CC[C@@]1(O)C[C@H](O[C@H]2C[C@H](N(C)C)[C@H](O[C@H]3C[C@H](O)[C@H](O[C@H]4C[C@H](O)[C@H](O)[C@H](C)O4)[C@H](C)O3)[C@H](C)O2)c2c(cc3c(c2O)C(=O)c2c(O)ccc(O)c2C3=O)[C@H]1C(=O)OC,inactive: 1.05

# An excerpt from above in order of molecular weight, high to low.
row,SMILES,Kcc2 promoter-driven luciferase activity
19,CC[C@@]1(O)C[C@H](O[C@H]2C[C@H](N(C)C)[C@H](O[C@H]3C[C@H](O)[C@H](O[C@H]4C[C@H](O)[C@H](O)[C@H](C)O4)[C@H](C)O3)[C@H](C)O2)c2c(cc3c(c2O)C(=O)c2c(O)ccc(O)c2C3=O)[C@H]1C(=O)OC,inactive: 1.05
16,COC1C(O)=C2C(=O)OC(C)(O)/C=C/C=C\C=C/C=C/C(c3ccccc3)NC(=O)/C=C/C=C/C=C/C=C/C2(C)C1O (centres undefined),inactive: 0.84
4,O=C1C=C(Nc2ccccc2C(=O)CC(=O)C(=O)Nc2ccc(Cl)c(Cl)c2)c2ccccc2C1=O,inactive: 1.11
17,CC1=NN(C(=O)c2ccncc2)C(=O)C1N=Nc1ccc(F)cc1 (centres undefined),active: 1.33
7,"O=C(Nc1ccc2c(c1)oc(=O)c1ccccc12)C(Cl)Cl [2,2-Dichloro-N-(6-oxobenzo[c]chromen-3-yl)acetamide]",inactive: 0.77
14,"Nc1nc2c(ncn2[C@@H]2O[C@H](CO)[C@@H](O)[C@H]2O)c(=O)[nH]1 [guanosine, dihydrate]",active: 1.39
7,Nc1nc(SCCc2ccccc2)c2[nH]cnc2n1 [6-phenethylsulfanyl-7H-purin-2-amine],active: 1.27
12,CS(=O)(=O)OCCCCOS(C)(=O)=O [Busulfan],inactive: 1.06
10,"c1ccc2c(c1)nnn1c3cnccc3nc21 [Pyrido(4',3':4,5)imidazo(1,2-c)(1,2,3)benzotriazine]",inactive: 1.01
17,NC(=O)C#CC(N)=O [Cellocidin],inactive: 1.2
